The record followed here is publication PMC9496679.

The chains behind the UniProt entries cited, without tags or fusion partners. Where a name states a change or a piece, a line headed by the entry shows the natural chain unless it says otherwise. Residues count along the entry.
UniProt P35613, residues 22-385: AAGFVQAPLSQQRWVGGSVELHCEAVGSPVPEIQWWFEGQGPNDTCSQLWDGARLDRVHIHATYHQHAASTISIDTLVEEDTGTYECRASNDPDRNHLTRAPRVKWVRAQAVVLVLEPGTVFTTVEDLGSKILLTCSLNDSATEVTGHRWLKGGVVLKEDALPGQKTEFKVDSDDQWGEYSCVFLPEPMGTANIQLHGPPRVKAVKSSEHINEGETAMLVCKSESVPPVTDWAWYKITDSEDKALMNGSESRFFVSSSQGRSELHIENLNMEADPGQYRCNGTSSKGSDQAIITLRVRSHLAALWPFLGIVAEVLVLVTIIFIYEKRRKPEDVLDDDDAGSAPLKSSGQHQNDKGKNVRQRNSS
UniProt P27824, residues 21-592: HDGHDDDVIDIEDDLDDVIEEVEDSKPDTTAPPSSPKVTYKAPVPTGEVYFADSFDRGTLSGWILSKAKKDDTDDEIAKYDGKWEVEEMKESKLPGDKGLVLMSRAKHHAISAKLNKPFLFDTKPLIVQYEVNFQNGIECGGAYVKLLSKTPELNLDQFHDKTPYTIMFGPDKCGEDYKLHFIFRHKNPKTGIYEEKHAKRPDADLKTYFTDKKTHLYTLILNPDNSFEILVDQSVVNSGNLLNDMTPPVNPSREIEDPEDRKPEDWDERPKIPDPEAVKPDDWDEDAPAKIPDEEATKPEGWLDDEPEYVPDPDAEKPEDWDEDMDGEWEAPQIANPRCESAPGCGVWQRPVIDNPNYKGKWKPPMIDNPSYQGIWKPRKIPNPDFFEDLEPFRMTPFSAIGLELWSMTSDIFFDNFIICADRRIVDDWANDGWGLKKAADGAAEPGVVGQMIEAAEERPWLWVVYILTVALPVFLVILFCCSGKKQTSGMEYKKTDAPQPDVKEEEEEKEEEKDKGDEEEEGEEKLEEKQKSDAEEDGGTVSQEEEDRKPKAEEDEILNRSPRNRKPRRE
UniProt P11021, residues 19-654: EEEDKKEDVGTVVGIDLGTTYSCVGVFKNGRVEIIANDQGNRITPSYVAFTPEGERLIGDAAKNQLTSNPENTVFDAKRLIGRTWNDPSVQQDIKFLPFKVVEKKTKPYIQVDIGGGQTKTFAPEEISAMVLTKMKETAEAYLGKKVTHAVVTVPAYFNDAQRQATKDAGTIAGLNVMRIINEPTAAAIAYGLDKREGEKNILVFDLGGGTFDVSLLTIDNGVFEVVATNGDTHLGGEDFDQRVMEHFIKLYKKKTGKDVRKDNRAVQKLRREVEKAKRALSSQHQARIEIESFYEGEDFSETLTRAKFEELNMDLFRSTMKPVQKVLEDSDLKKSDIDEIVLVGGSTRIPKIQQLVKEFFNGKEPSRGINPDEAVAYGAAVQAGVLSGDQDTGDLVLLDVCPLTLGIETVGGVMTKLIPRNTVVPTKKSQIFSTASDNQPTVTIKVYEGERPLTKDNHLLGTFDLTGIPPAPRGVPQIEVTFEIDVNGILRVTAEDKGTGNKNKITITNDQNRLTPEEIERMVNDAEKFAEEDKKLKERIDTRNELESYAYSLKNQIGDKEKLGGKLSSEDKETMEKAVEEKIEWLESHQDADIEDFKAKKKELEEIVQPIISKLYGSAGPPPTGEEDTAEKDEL
UniProt Q6P1M0: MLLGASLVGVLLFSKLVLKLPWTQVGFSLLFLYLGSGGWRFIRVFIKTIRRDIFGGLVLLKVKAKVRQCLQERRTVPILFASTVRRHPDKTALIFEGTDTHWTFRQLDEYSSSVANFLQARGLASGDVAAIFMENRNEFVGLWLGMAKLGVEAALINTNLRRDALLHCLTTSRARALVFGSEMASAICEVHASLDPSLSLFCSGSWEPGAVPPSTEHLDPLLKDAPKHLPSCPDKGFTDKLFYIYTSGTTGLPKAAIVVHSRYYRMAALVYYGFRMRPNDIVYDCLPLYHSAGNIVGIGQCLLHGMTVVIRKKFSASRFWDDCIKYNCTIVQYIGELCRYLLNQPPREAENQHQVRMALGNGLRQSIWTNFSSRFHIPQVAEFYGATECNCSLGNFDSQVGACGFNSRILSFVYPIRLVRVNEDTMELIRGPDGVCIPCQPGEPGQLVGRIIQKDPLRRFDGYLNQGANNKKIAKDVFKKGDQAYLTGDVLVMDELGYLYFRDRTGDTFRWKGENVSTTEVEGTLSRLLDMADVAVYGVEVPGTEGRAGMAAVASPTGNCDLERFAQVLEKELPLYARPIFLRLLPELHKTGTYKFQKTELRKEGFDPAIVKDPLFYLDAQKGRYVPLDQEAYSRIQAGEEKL
UniProt Q7Z434: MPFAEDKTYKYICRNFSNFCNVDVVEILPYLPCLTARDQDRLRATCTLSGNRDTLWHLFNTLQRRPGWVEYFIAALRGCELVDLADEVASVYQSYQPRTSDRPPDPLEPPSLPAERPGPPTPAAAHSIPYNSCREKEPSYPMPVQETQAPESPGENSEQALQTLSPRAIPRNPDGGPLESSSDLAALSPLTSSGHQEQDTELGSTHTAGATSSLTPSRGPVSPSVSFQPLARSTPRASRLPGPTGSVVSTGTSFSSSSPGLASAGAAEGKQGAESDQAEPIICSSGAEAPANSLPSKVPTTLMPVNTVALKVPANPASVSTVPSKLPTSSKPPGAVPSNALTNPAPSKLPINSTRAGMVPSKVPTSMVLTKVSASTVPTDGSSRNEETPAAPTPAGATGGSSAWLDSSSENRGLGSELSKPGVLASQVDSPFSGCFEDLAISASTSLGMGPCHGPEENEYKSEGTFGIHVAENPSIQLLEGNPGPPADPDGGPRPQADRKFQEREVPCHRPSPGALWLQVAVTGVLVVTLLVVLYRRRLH
UniProt P38646, residues 47-679: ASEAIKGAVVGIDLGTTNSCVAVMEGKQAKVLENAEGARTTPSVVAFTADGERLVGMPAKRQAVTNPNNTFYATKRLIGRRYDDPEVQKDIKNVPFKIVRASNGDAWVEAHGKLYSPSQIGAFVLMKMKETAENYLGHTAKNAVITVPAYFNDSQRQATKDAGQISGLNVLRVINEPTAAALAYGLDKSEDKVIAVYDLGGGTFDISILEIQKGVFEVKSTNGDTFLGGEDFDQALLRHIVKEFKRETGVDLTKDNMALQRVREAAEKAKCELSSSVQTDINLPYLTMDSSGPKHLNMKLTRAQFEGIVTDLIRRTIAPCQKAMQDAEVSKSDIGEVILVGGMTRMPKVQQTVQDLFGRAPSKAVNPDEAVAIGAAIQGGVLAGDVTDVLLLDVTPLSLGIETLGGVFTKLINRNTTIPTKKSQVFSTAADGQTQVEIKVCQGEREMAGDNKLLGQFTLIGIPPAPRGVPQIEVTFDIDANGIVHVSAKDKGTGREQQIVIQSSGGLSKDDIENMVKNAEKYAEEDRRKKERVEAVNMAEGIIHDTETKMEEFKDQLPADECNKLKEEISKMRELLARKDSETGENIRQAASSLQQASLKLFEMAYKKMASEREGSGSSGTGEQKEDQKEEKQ
UniProt P07237, residues 18-508: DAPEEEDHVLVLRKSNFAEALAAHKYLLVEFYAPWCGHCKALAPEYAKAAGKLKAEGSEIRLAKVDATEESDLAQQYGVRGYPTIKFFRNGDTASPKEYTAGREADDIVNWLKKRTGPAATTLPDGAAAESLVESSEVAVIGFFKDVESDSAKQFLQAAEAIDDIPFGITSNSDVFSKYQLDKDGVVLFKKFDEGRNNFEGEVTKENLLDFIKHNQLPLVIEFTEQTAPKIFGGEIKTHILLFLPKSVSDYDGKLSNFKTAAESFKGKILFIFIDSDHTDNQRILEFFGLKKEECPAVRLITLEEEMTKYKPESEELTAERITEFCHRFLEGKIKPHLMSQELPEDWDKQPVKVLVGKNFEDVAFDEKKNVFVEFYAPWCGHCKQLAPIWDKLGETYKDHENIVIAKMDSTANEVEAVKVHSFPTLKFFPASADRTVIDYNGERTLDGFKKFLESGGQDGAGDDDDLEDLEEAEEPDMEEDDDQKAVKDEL
UniProt P21796: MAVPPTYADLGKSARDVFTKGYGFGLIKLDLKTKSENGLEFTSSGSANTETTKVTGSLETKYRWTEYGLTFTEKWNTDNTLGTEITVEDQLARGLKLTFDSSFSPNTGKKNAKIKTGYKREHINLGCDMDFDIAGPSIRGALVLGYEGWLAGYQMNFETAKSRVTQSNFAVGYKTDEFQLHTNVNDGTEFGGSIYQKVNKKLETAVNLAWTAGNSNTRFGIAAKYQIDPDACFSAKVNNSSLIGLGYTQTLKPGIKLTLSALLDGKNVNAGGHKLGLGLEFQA
UniProt Q15388: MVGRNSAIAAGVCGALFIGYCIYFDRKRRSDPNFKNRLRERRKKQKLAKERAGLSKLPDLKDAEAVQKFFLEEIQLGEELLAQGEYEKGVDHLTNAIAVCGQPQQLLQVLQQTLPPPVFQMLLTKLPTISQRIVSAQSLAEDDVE
UniProt Q99720: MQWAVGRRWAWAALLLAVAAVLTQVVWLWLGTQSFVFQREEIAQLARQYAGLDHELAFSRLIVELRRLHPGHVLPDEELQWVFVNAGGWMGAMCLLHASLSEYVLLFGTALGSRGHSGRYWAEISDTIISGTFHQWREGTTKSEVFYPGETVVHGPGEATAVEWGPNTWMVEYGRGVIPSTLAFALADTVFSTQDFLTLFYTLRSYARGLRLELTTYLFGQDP

Experiment [1] addresses T1, Strep II/FLAG (SF)-tagged human VLGR1_CTF (human) (UniProt Q8WXG9).
T1 sequence: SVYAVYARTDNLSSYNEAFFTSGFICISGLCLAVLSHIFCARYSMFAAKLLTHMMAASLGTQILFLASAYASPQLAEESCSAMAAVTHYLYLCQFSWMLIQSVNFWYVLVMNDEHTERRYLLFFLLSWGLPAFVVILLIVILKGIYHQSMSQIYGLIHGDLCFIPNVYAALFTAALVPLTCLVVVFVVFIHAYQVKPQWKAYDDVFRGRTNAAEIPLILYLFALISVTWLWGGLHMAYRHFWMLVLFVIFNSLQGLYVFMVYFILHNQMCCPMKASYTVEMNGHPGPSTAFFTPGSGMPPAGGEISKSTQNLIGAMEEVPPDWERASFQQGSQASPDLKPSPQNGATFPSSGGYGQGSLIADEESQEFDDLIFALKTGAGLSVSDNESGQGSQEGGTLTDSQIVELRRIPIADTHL
Put plainly: affinity purification with mass spectrometry; tandem affinity purification (Strep-Tactin Superflow, then anti-FLAG M2 agarose) of N- and C-terminally SF-tagged VLGR1_CTF expressed 48 h in hTERT-RPE1 cells; LC-MS/MS; preys of mock and RAF1 TAPs excluded; N- and C-tagged baits pooled.

Experiment [2] has as its target T1, Strep II/FLAG (SF)-tagged human VLGR1_CTF (human). Put plainly: affinity purification with mass spectrometry; tandem affinity purification (Strep-Tactin Superflow, then anti-FLAG M2 agarose; elution with desthiobiotin and FLAG peptide) of N- and C-terminally SF-tagged VLGR1_CTF expressed 48 h in HEK293T cells; LC-MS/MS; preys of mock and RAF1 TAPs excluded; N- and C-tagged baits pooled.

The target is the same in experiment [3]. Put plainly: affinity purification with mass spectrometry; VLGR1_CTF TAPs; the cell line (HEK293T or hTERT-RPE1) is not told for this prey.

These are yes or no findings as the source states them, for the method shown. Binding seen in cells or lysates may run through a third protein. Here binding means that the protein was enriched with, or labelled near, the bait; the list need not be complete. Sequences can lack the tags named with a protein.

Consider Basigin (from UniProt P35613 22-385), for which the binding result in experiment [1] and in experiment [2] was “binds” in each case.

Take Calnexin (from UniProt P27824 21-592): the binding result in experiment [1] and in experiment [2] was “binds” throughout.

For the molecule “Heat shock protein 5 (from UniProt P11021 19-654)”, the binding entry in experiment [1] and in experiment [2] was “binds” throughout.

Turning to “Long-chain fatty acid transport protein 4 (from UniProt Q6P1M0 1-643)”, the binding result in experiment [1] and in experiment [2] was “binds” each time.

For “Mito. antiviral-signaling protein (from UniProt Q7Z434 1-540)”, the binding entry in experiment [1] and in experiment [2] was “binds” in each case.

As to “Mitochondrial heat shock protein 9 (from UniProt P38646 47-679)”, the binding entry in experiment [1] and in experiment [2] was “binds” in each case.

With “Protein disulfide-isomerase (from UniProt P07237 18-508) (enzyme)”, the binding entry in experiment [1] and in experiment [2] was “binds” each time.

Take “Reticulon 4, neurite outgrowth inhibitor, Nogo-A (from UniProt Q9NQC3-1 1-1192)”: the binding entry in experiment [1] and in experiment [2] was “binds” in each case.

In the case of “Voltage-dependent anion-channel 1 (from UniProt P21796 1-283)”, the binding result in experiment [1] and in experiment [2] was “binds” throughout.

Take “mitochondrial import receptor subunit TOM20, endogenous (from UniProt Q15388 1-145)”: the binding entry in experiment [3] is reported as “binds”.

Take “sigma-1 receptor (S1R), endogenous (from UniProt Q99720 1-223)”: the binding entry in experiment [1] and in experiment [2] was “binds” throughout.

B1: Erlin-2 (protein, UniProt O94905 1-339)
chain: MAQLGAVVAVASSFFCASLFSAVHKIEEGHIGVYYRGGALLTSTSGPGFHLMLPFITSYKSVQTTLQTDEVKNVPCGTSGGVMIYFDRIEVVNFLVPNAVYDIVKNYTADYDKALIFNKIHHELNQFCSVHTLQEVYIELFDQIDENLKLALQQDLTSMAPGLVIQAVRVTKPNIPEAIRRNYELMESEKTKLLIAAQKQKVVEKEAETERKKALIEAEKVAQVAEITYGQKVMEKETEKKISEIEDAAFLAREKAKADAECYTAMKIAEANKLKLTPEYLQLMKYKAIASNSKIYFGKDIPNMFMDSAGSVSKQFEGLADKLSFGLEDEPLETATKEN
Regarding B1, the binding result in experiment [1] and in experiment [2] was “binds” throughout.

B2: Wolframin, ER, transmembrane (protein, UniProt O76024 1-890)
chain: MDSNTAPLGPSCPQPPPAPQPQARSRLNATASLEQERSERPRAPGPQAGPGPGVRDAAAPAEPQAQHTRSRERADGTGPTKGDMEIPFEEVLERAKAGDPKAQTEVGKHYLQLAGDTDEELNSCTAVDWLVLAAKQGRREAVKLLRRCLADRRGITSENEREVRQLSSETDLERAVRKAALVMYWKLNPKKKKQVAVAELLENVGQVNEHDGGAQPGPVPKSLQKQRRMLERLVSSESKNYIALDDFVEITKKYAKGVIPSSLFLQDDEDDDELAGKSPEDLPLRLKVVKYPLHAIMEIKEYLIDMASRAGMHWLSTIIPTHHINALIFFFIVSNLTIDFFAFFIPLVIFYLSFISMVICTLKVFQDSKAWENFRTLTDLLLRFEPNLDVEQAEVNFGWNHLEPYAHFLLSVFFVIFSFPIASKDCIPCSELAVITGFFTVTSYLSLSTHAEPYTRRALATEVTAGLLSLLPSMPLNWPYLKVLGQTFITVPVGHLVVLNVSVPCLLYVYLLYLFFRMAQLRNFKGTYCYLVPYLVCFMWCELSVVILLESTGLGLLRASIGYFLFLFALPILVAGLALVGVLQFARWFTSLELTKIAVTVAVCSVPLLLRWWTKASFSVVGMVKSLTRSSMVKLILVWLTAIVLFCWFYVYRSEGMKVYNSTLTWQQYGALCGPRAWKETNMARTQILCSHLEGHRVTWTGRFKYVRVTDIDNSAESAINMLPFFIGDWMRCLYGEAYPACSPGNTSTAEEELCRLKLLAKHPCHIKKFDRYKFEITVGMPFSSGADGSRSREEDDVTKDIVLRASSEFKSVLLSLRQGSLIEFSTILEGRLGSKWPVFELKAISCLNCMAQLSPTRRHVKIEHDWRSTVHGAVKFAFDFFFFPFLSAA
Consider B2, for which the binding entry in experiment [2] is “binds”.

B3: Reticulon-2 (protein, UniProt O75298 1-545)
chain: MGQVLPVFAHCKEAPSTASSTPDSTEGGNDDSDFRELHTAREFSEEDEEETTSQDWGTPRELTFSYIAFDGVVGSGGRRDSTARRPRPQGRSVSEPRDQHPQPSLGDSLESIPSLSQSPEPGRRGDPDTAPPSERPLEDLRLRLDHLGWVARGTGSGEDSSTSSSTPLEDEEPQEPNRLETGEAGEELDLRLRLAQPSSPEVLTPQLSPGSGTPQAGTPSPSRSRDSNSGPEEPLLEEEEKQWGPLEREPVRGQCLDSTDQLEFTVEPRLLGTAMEWLKTSLLLAVYKTVPILELSPPLWTAIGWVQRGPTPPTPVLRVLLKWAKSPRSSGVPSLSLGADMGSKVADLLYWKDTRTSGVVFTGLMVSLLCLLHFSIVSVAAHLALLLLCGTISLRVYRKVLQAVHRGDGANPFQAYLDVDLTLTREQTERLSHQITSRVVSAATQLRHFFLVEDLVDSLKLALLFYILTFVGAIFNGLTLLILGVIGLFTIPLLYRQHQAQIDQYVGLVTNQLSHIKAKIRAKIPGTGALASAAAAVSGSKAKAE
As for B3, the binding entry in experiment [1] and in experiment [2] was “binds” throughout.

B4: CDGSH iron sulfur domain 2 (protein, UniProt Q8N5K1 1-135)
chain: MVLESVARIVKVQLPAYLKRLPVPESITGFARLTVSEWLRLLPFLGVLALLGYLAVRPFLPKKKQQKDSLINLKIQKENPKVVNEINIEDLCLTKAAYCRCWRSKTFPACDGSHNKHNELTGDNVGPLILKKKEV
B4: the binding entry in experiment [2] was “binds”.
